Experimental data taken from patent US6310072A (priority 1995, dated 2001).

System: Dark Agouti rats
Parameters: species or system rat (Dark Agouti)
Conditions: rat, in vivo, sc

For CN1CC[C@]23c4c5ccc(O)c4O[C@H]2[C@@H](O)C=C[C@H]3[C@H]1C5 [morphine], the “Time to maximum antinociception (Tmax)” value was 45 min.
